Literature values in US9303042B2, “Triazolothienopyrimidine compound inhibitors of urea transporters and methods of using inhibitors” (The Regents of the University of California, priority 2012, dated 2016).
Some entries share one result that the patent states for a list of compounds. Some ranges recur; such a range may be that of the whole group of compounds.

Tested on: UT
Conditions: literature; cited from earlier work

CNC(=O)NC [dimethylurea]
concentration exhibiting activity: 50 to 100 mM

CNC(N)=O [methylurea]
concentration exhibiting activity: 50 to 100 mM
